PubChem BioAssay AID602196, INSERM | 2012
The deposit covers about 23,000 reagents; shown is a part drawn at random. 455 of all reagents (2%) were called active. 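Active includes both protection and sensitisation; some change values fall well beyond the stated -50 to +50 range.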 Not all columns of the deposit are shown. The record does not give: the amount of reagent.

Aim: 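Genes whose knock-down alters cisplatin killing of lung cancer cells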
System: human A549 lung cancer cells
Reagent: siRNA pair against human genes
Timing: 48 h transfection before cisplatin; time from cisplatin to read-out not stated
Challenge: cisplatin at a dose killing half of control-siRNA cells; exact dose and duration not given
Measured: 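Shift in cisplatin death relative to control siRNA, from -50 (all cells die) to +50 (no cells die); siRNAs harmful on their own scored 0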
Direction: two-siRNA summed score (-2 to +2): higher = both siRNAs protect from cisplatin killing; -2 means both sensitise
Active means: 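Each siRNA scores 0 if harmful alone by LDH or WST-1, otherwise +1 if it reduces and -1 if it increases cisplatin killing; a gene is active when both siRNAs agree (sum +2 or -2)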
Calls: active = both siRNAs shift cisplatin killing the same way; inactive = no consistent shift, or siRNA harmful alone

{"target gene": "SPIN3 (spindlin family member 3)", "two-siRNA summed score (-2 to +2)": 0, "Outcome": "inactive"}
{"target gene": "PCDH11Y (protocadherin 11 Y-linked)", "two-siRNA summed score (-2 to +2)": 0, "Outcome": "inactive"}
{"target gene": "GRID2 (glutamate ionotropic receptor delta type subunit 2)", "two-siRNA summed score (-2 to +2)": 0, "Outcome": "inactive"}
{"target gene": "GALNT3 (polypeptide N-acetylgalactosaminyltransferase 3)", "two-siRNA summed score (-2 to +2)": 0, "Outcome": "inactive"}
{"target gene": "CDH26 (cadherin 26)", "two-siRNA summed score (-2 to +2)": 0, "Outcome": "inactive"}
{"target gene": "KRCC1 (lysine rich coiled-coil 1)", "two-siRNA summed score (-2 to +2)": 0, "Outcome": "inactive"}
{"target gene": "LCP2 (lymphocyte cytosolic protein 2)", "two-siRNA summed score (-2 to +2)": 1, "Outcome": "inactive"}
{"target gene": "ZNF707 (zinc finger protein 707)", "two-siRNA summed score (-2 to +2)": 0, "Outcome": "inactive"}
{"target gene": "DNAAF9 (dynein axonemal assembly factor 9)", "two-siRNA summed score (-2 to +2)": 0, "Outcome": "inactive"}
{"target gene": "FRMD6 (FERM domain containing 6)", "two-siRNA summed score (-2 to +2)": 0, "Outcome": "inactive"}
{"target gene": "GTF2IRD2 (GTF2I repeat domain containing 2)", "two-siRNA summed score (-2 to +2)": 0, "Outcome": "inactive"}
{"target gene": "ZFYVE27 (zinc finger FYVE-type containing 27)", "two-siRNA summed score (-2 to +2)": 0, "Outcome": "inactive"}
{"target gene": "MT3 (metallothionein 3)", "two-siRNA summed score (-2 to +2)": 0, "Outcome": "inactive"}
{"target gene": "FTLP3 (ferritin light chain pseudogene 3)", "two-siRNA summed score (-2 to +2)": 0, "Outcome": "inactive"}
{"target gene": "TAFAZZIN (tafazzin, phospholipid-lysophospholipid transacylase)", "two-siRNA summed score (-2 to +2)": 0, "Outcome": "inactive"}
{"target gene": "LOC440163", "two-siRNA summed score (-2 to +2)": 1, "Outcome": "inactive"}
{"target gene": "LOC144448", "two-siRNA summed score (-2 to +2)": 0, "Outcome": "inactive"}
{"target gene": "USP20 (ubiquitin specific peptidase 20)", "two-siRNA summed score (-2 to +2)": 0, "Outcome": "inactive"}
{"target gene": "LOC442666", "two-siRNA summed score (-2 to +2)": 1, "Outcome": "inactive"}
{"target gene": "IPO9 (importin 9)", "two-siRNA summed score (-2 to +2)": 0, "Outcome": "inactive"}
{"target gene": "ZZEF1 (zinc finger ZZ-type and EF-hand domain containing 1)", "two-siRNA summed score (-2 to +2)": 0, "Outcome": "inactive"}
{"target gene": "PRELID2 (PRELI domain containing 2)", "two-siRNA summed score (-2 to +2)": 0, "Outcome": "inactive"}
{"target gene": "SLC16A7", "two-siRNA summed score (-2 to +2)": 0, "Outcome": "inactive"}
{"target gene": "ZNF799 (zinc finger protein 799)", "two-siRNA summed score (-2 to +2)": 0, "Outcome": "inactive"}
{"target gene": "HOXB8 (homeobox B8)", "two-siRNA summed score (-2 to +2)": 0, "Outcome": "inactive"}
{"target gene": "CMTM6 (CKLF like MARVEL transmembrane domain containing 6)", "two-siRNA summed score (-2 to +2)": 0, "Outcome": "inactive"}
{"target gene": "CRYGN (crystallin gamma N)", "two-siRNA summed score (-2 to +2)": 1, "Outcome": "inactive"}
{"target gene": "TUBB8 (tubulin beta 8 class VIII)", "two-siRNA summed score (-2 to +2)": 0, "Outcome": "inactive"}
{"target gene": "DROSHA (drosha ribonuclease III)", "two-siRNA summed score (-2 to +2)": 0, "Outcome": "inactive"}
{"target gene": "SIPA1 (signal-induced proliferation-associated 1)", "two-siRNA summed score (-2 to +2)": 0, "Outcome": "inactive"}
{"target gene": "MFAP1 (microfibril associated protein 1)", "two-siRNA summed score (-2 to +2)": 0, "Outcome": "inactive"}

In a second layout: 3 of the entries above
target gene	two-siRNA summed score (-2 to +2)	Outcome
GTF2IRD2 (GTF2I repeat domain containing 2)	0	inactive
ZFYVE27 (zinc finger FYVE-type containing 27)	0	inactive
MT3 (metallothionein 3)	0	inactive
